Results reported in PubChem BioAssay AID200 (DTP/NCI, 2004).
The list is a part of this screen's results and no random one: its compounds were picked by chemical class. Not every dose and run of a compound is shown. T/C gives the treated animals as a percentage of the vehicle group. Some entries give survivors of the animals treated and no T/C: the source files T/C as zero there, which appears to mark a toxic dose or a test without result, not a measured value. Some doses without a T/C left all or most animals alive at the check, yet need not have been tolerated: the source hardly ever lists a survival T/C far under the control, and the zero likely stands for such cases as well. Counts of survivors are from the toxicity check (mostly the fifth day) where no day follows; animals may have died later. Schedules are NCI's codes, read here as Q, the interval in days (D) or hours (H), X, the number of doses. Some doses were run more than once; their values stand side by side, smallest first. Some metal complexes and salts are drawn in pieces, as in the source, so charges may not balance. Where survival is the endpoint, this PubChem deposit counts one and a half times the control or more as active, and values a quarter to a half above the control carry no call in these data; other NCI protocols may use other cut-offs. Some T/C values are followed by the survivors on the day toxicity was checked, most often the fifth; where neither a count nor a note follows, no animal had died by that day.

Test system: B6C3F1 mice, B16 melanoma ip, median survival T/C
Experiment: NCI In Vivo Anticancer Drug Screen. Data for tumor model B16 Melanoma (intraperitoneal) in B6C3F1 mice
Conditions: T/C endpoint: median survival time, higher T/C = longer survival
Method: The antitumor activity of compounds was measured in mice bearing transplantable tumors. Survival or tumor size were measured and the results are expressed as the measurement made in the treated group (T) divided by the measurement made in the vehicle treated control group (C). The tumor model used in this assay is B16 Melanoma (intraperitoneal) in B6C3F1 mice

[1] = dose: 12.5 mg/kg/injection, schedule: Q01DX009 (ip), vehicle: Klucel (hydroxypropylcellulose) (HPC)
[2] = dose: 25.0 mg/kg/injection, schedule: Q01DX009 (ip), vehicle: Klucel (hydroxypropylcellulose) (HPC)
[3] = dose: 50.0 mg/kg/injection, schedule: Q01DX009 (ip), vehicle: Klucel (hydroxypropylcellulose) (HPC)
[4] = dose: 100.0 mg/kg/injection, schedule: Q01DX009 (ip), vehicle: Klucel (hydroxypropylcellulose) (HPC)
[5] = dose: 25.0 mg/kg/injection, schedule: Q01DX009 (ip), vehicle: saline
[6] = dose: 50.0 mg/kg/injection, schedule: Q01DX009 (ip), vehicle: saline
[7] = dose: 100.0 mg/kg/injection, schedule: Q01DX009 (ip), vehicle: saline
[8] = dose: 200.0 mg/kg/injection, schedule: Q01DX009 (ip), vehicle: saline
[9] = dose: 50.0 mg/kg/injection, schedule: Q01DX009 (ip), vehicle: saline with Tween-80
[10] = dose: 100.0 mg/kg/injection, schedule: Q01DX009 (ip), vehicle: saline with Tween-80
[11] = dose: 200.0 mg/kg/injection, schedule: Q01DX009 (ip), vehicle: saline with Tween-80
[12] = dose: 400.0 mg/kg/injection, schedule: Q01DX009 (ip), vehicle: saline with Tween-80
[13] = dose: 6.25 mg/kg/injection, schedule: Q01DX009 (ip), vehicle: Klucel (hydroxypropylcellulose) (HPC)
[14] = dose: 12.5 mg/kg/injection, schedule: Q01DX009 (ip), vehicle: saline
[15] = dose: 25.0 mg/kg/injection, schedule: Q01DX009 (ip), vehicle: saline with Tween-80
[16] = dose: 400.0 mg/kg/injection, schedule: Q01DX009 (ip), vehicle: saline

## NC(=O)c1[nH]cnc1/N=N\N(CCCl)CCCl
dose: 16.0 mg/kg/injection, schedule: Q01DX009 (ip), vehicle: other
  T/C: 110 % of control
dose: 32.0 mg/kg/injection, schedule: Q01DX009 (ip), vehicle: other
  T/C: 142 % of control
dose: 64.0 mg/kg/injection, schedule: Q01DX009 (ip), vehicle: other
  T/C: 160 % of control
dose: 128.0 mg/kg/injection, schedule: Q01DX009 (ip), vehicle: other
  T/C: 108 % of control
dose: 256.0 mg/kg/injection, schedule: Q01DX009 (ip), vehicle: other
  survivor count: 10 of 10

## ClP1(Cl)=NP(Cl)(Cl)=NP(Cl)(Cl)=NP(Cl)(Cl)=N1
[1]
  T/C: 92 % of control
[2]
  T/C: 91 % of control [9 of 10 alive]
[3]
  T/C: 92 % of control
[4]
  T/C: 91 % of control [9 of 10 alive]
dose: 200.0 mg/kg/injection, schedule: Q01DX009 (ip), vehicle: Klucel (hydroxypropylcellulose) (HPC)
  T/C: 92 % of control
dose: 400.0 mg/kg/injection, schedule: Q01DX009 (ip), vehicle: Klucel (hydroxypropylcellulose) (HPC)
  survivor count: 10 of 10

## NC1CCCCC1.O=P(O)(NCCCO)N(CCCl)CCCl
[5]
  T/C: 116 % of control
[6]
  T/C: 143 % of control
[7]
  T/C: 165 % of control
[8]
  T/C: 126 % of control

## CC1(C)CN1P(=O)(Nc1ccccn1)N1CC1(C)C (stereo unspecified)
[9]
  T/C: 103 % of control
[10]
  T/C: 109 % of control
[11]
  T/C: 139 % of control
[12]
  survivor count: 0 of 10

## [Au].[C-]#N.[C-]#N
dose: 0.62 mg/kg/injection, schedule: Q01DX009 (ip), vehicle: saline
  T/C: 90 % of control
dose: 1.25 mg/kg/injection, schedule: Q01DX009 (ip), vehicle: saline
  T/C: 96 % of control
dose: 2.5 mg/kg/injection, schedule: Q01DX009 (ip), vehicle: saline
  T/C: 93 % of control
dose: 5.0 mg/kg/injection, schedule: Q01DX009 (ip), vehicle: saline
  T/C: 91 % of control
dose: 10.0 mg/kg/injection, schedule: Q01DX009 (ip), vehicle: saline
  T/C: 95 % of control [8 of 10 alive]
dose: 20.0 mg/kg/injection, schedule: Q01DX009 (ip), vehicle: saline
  survivor count: 0 of 10

## Cc1ccc(N(CCCl)CCCl)cc1C
[13]
  T/C: 126 % of control
[1]
  T/C: 129 % of control
[2]
  T/C: 152 % of control
[3]
  T/C: 189 % of control
[4]
  T/C: 172 % of control

## C[As](C)SC1OC(CO)C(O)C(O)C1O (stereo unspecified)
dose: 3.12 mg/kg/injection, schedule: Q01DX009 (ip), vehicle: saline
  T/C: 98 and 102 % of control
dose: 6.25 mg/kg/injection, schedule: Q01DX009 (ip), vehicle: saline
  T/C: 88 and 99 % of control
[14]
  T/C: 92 and 99 % of control
[5]
  T/C: 108 % of control
  survivor count: 10 of 10
[6]
  T/C: 103 and 124 % of control
[7]
  survivor count: 4 of 10 and 6 of 10

## NNC(=O)NP(=O)(NC(=O)NN)NC(=O)NN
[15]
  T/C: 87 % of control [9 of 10 alive]
[9]
  T/C: 96 % of control
[10]
  T/C: 99 % of control
[11]
  T/C: 101 % of control

## Cc1ccc(Sc2ccc([N+](=O)[O-])cc2[N+](=O)[O-])c([N+](=O)[O-])c1
[14]
  T/C: 108 % of control
[5]
  T/C: 111 % of control
[6]
  T/C: 106 % of control
[7]
  T/C: 105 % of control
[8]
  T/C: 110 % of control
[16]
  T/C: 120 % of control

## CCCCOc1ccc(N(CCCl)CCCl)cc1
[13]
  T/C: 125 % of control
[1]
  T/C: 125 % of control
[2]
  survivor count: 10 of 10
[3]
  survivor count: 10 of 10

## CC1(C)CN1P(=O)(Nc1ncccn1)N1CC1(C)C (stereo unspecified)
[14]
  T/C: 106 % of control [9 of 10 alive]
[5]
  T/C: 123 % of control
[6]
  T/C: 137 % of control
[7]
  T/C: 149 % of control
[8]
  T/C: 143 % of control
[16]
  T/C: 191 % of control

## COc1ccc(N(CCCl)CCCl)cc1OC
dose: 3.13 mg/kg/injection, schedule: Q01DX009 (ip), vehicle: Klucel (hydroxypropylcellulose) (HPC)
  T/C: 123 % of control
[13]
  T/C: 135 % of control
[1]
  T/C: 165 % of control
[2]
  T/C: 183 % of control
[3]
  survivor count: 10 of 10

## Nc1ccc(N(CCCl)CCCl)cc1
dose: 0.5 mg/kg/injection, schedule: Q01DX005 (iv), vehicle: saline
  T/C: 105 % of control
dose: 1.0 mg/kg/injection, schedule: Q01DX005 (iv), vehicle: saline
  T/C: 104 % of control
dose: 2.0 mg/kg/injection, schedule: Q01DX005 (iv), vehicle: saline
  T/C: 116 % of control
dose: 4.0 mg/kg/injection, schedule: Q01DX005 (iv), vehicle: saline
  survivor count: 10 of 10
dose: 8.0 mg/kg/injection, schedule: Q01DX005 (iv), vehicle: saline
  survivor count: 10 of 10
dose: 25.0 micrograms/kg/injection, schedule: Q01DX009 (ip), vehicle: saline
  T/C: 98 % of control
dose: 50.0 micrograms/kg/injection, schedule: Q01DX009 (ip), vehicle: saline
  T/C: 98 % of control
dose: 100.0 micrograms/kg/injection, schedule: Q01DX009 (ip), vehicle: saline
  T/C: 106 % of control
dose: 200.0 micrograms/kg/injection, schedule: Q01DX009 (ip), vehicle: saline
  T/C: 113 % of control

## Cc1cc(N(CCCl)CCCl)ccc1N
dose: 0.13 mg/kg/injection, schedule: Q01DX009 (ip), vehicle: Klucel (hydroxypropylcellulose) (HPC)
  T/C: 119 % of control
dose: 0.25 mg/kg/injection, schedule: Q01DX009 (ip), vehicle: Klucel (hydroxypropylcellulose) (HPC)
  T/C: 131 % of control
dose: 0.5 mg/kg/injection, schedule: Q01DX009 (ip), vehicle: Klucel (hydroxypropylcellulose) (HPC)
  T/C: 145 % of control
dose: 1.0 mg/kg/injection, schedule: Q01DX009 (ip), vehicle: Klucel (hydroxypropylcellulose) (HPC)
  T/C: 137 % of control
dose: 2.0 mg/kg/injection, schedule: Q01DX009 (ip), vehicle: Klucel (hydroxypropylcellulose) (HPC)
  T/C: 108 % of control
dose: 4.0 mg/kg/injection, schedule: Q01DX009 (ip), vehicle: Klucel (hydroxypropylcellulose) (HPC)
  survivor count: 10 of 10

## ClC1CSC1
[15]
  T/C: 96 % of control
dose: 50.0 mg/kg/injection, schedule: Q01DX009 (ip), vehicle: saline with Tween-80, evaluated on day 45
  T/C: 95 % of control
dose: 50.0 mg/kg/injection, schedule: Q01DX009 (ip), vehicle: saline with Tween-80, evaluated on day 60
  T/C: 90 % of control
dose: 100.0 mg/kg/injection, schedule: Q01DX009 (ip), vehicle: saline with Tween-80, evaluated on day 45
  T/C: 108 % of control
dose: 100.0 mg/kg/injection, schedule: Q01DX009 (ip), vehicle: saline with Tween-80, evaluated on day 60
  T/C: 91 % of control
[11]
  T/C: 98 % of control
  survivor count: 7 of 10
[12]
  T/C: 91 % of control
  survivor count: 0 of 10

## N/C(=N\[N+](=O)[O-])N(CCO[N+](=O)[O-])N=O
dose: 6.25 mg/kg/injection, schedule: Q01DX009 (ip), vehicle: saline with Tween-80
  T/C: 127 % of control
dose: 12.5 mg/kg/injection, schedule: Q01DX009 (ip), vehicle: saline with Tween-80
  T/C: 147 % of control
[15]
  T/C: 133 % of control
[9]
  T/C: 135 % of control

## ICCN(CCI)c1cccc2ccccc12
dose: 3.12 mg/kg/injection, schedule: Q01DX009 (ip), vehicle: Klucel (hydroxypropylcellulose) (HPC)
  T/C: 92 and 196 % of control
[13]
  survivor count: 10 of 10
[1]
  survivor count: 1 of 10 and 10 of 10
[2]
  survivor count: 1 of 10 and 9 of 10
[3]
  survivor count: 0 of 10 and 10 of 10
[4]
  survivor count: 0 of 10 and 7 of 10
